PubChem BioAssay AID1259308 | NCATS, 2017
Here is an unselected part of about 59,000 deposited reagents. Over the whole deposit, about 1,510 (2.6%) were called active. 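Calls use total luciferase alone and ignore viability, so some active siRNAs may act by altering cell number.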

- Assay: 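Knock-downs that increase output of a recombinant reporter protein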 (primary screen)
- System: human HEK293 embryonic kidney cells stably expressing firefly luciferase (HEK-CMV-Luc2-Hygro)
- Reagent: single siRNA against human genes, 0.8 pmol siRNA per well
- Duration: 72 h
- Measurement: 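Reporter luminescence and viable-cell signal on separate replicate plates, given as percent of non-targeting control and median/MAD z-scores, plus per-cell luciferase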
- Scale: total luciferase, z-score and total luciferase, % of control: higher = more reporter protein produced; luciferase per cell, z-score: higher = more reporter output per viable cell; viable cells, % of control: higher = more viable cells
- Rule for the call: 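Active when the median/MAD z-score for overall luciferase is greater than 3; a gene was taken forward for validation with new siRNAs if at least two of its three siRNAs passed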
- Calls: active = raised luciferase; inactive = no rise

target gene	PubChem SID	total luciferase, z-score	total luciferase, % of control	luciferase per cell, z-score	viable cells, % of control	activity call
RELL2	SID160725031	0.215	86.2	0.24	90.4	inactive
RELL2	SID160725032	-0.586	70.2	1.18	57.5	inactive
RELL2	SID160725033	0.361	89.1	0.49	87.5	inactive
LINC00460	SID160771570	-0.55	70.9	1.87	48.4	inactive
LINC00460	SID160771571	-0.594	70.1	-0.365	86.2	inactive
LINC00460	SID160771572	0.626	94.3	0.601	90	inactive
PGAP4	SID160752104	0.838	98.6	0.619	93.6	inactive
PGAP4	SID160752105	-0.39	74.1	-0.403	92.1	inactive
PGAP4	SID160752106	0.195	85.8	1.25	68.9	inactive
IZUMO4	SID160732332	0.869	99.2	1.09	83.2	inactive
IZUMO4	SID160754798	-0.249	76.9	1.16	63.4	inactive
IZUMO4	SID160754799	0.459	91	0.818	82	inactive
ZNF521	SID160737266	-0.623	69.5	-0.693	93.2	inactive
ZNF521	SID160737267	0.864	99.1	0.537	96.1	inactive
ZNF521	SID160737268	1.3	108	0.645	102	inactive
MSR1	SID160777478	0.656	94.9	0.973	82.1	inactive
MSR1	SID160777479	1.93	120	0.608	114	inactive
MSR1	SID160777480	1.41	110	0.925	96.2	inactive
OR2D3	SID160755825	0.0183	82.3	0.0732	90.2	inactive
OR2D3	SID160755826	0.77	97.2	1	83.4	inactive
OR2D3	SID160755827	1.82	118	1.52	88.4	inactive
ITGAL	SID160775983	1.73	116	1.73	82.4	inactive
ITGAL	SID160775984	-0.692	68.1	-0.706	91.7	inactive
ITGAL	SID160775985	-2.36	34.9	-1.6	59.4	inactive
KPNA2	SID160776348	0.518	92.2	0.308	95	inactive
KPNA2	SID160776349	0.155	85	0.653	79.9	inactive
KPNA2	SID160776350	1.21	106	0.141	114	inactive
ERI1	SID160753704	-0.796	66.1	-0.122	76.2	inactive
ERI1	SID160753705	0.0752	83.4	-0.386	103	inactive
ERI1	SID160753706	0.122	84.3	-0.651	112	inactive
THAP8	SID160730751	1.63	114	1.93	76.8	inactive
THAP8	SID160760748	-0.698	68	0.225	71.6	inactive
THAP8	SID160760749	0.132	84.5	-0.091	96.7	inactive
ZNF765	SID160754049	-1.7	48.1	-1.04	70.7	inactive
ZNF765	SID160754050	2.4	130	2.07	84.1	inactive
ZNF765	SID160754051	0.221	86.3	0.136	93	inactive
ACAP2	SID160736476	0.994	102	1.53	75.9	inactive
ACAP2	SID160736478	0.376	89.4	-0.403	111	inactive
ACAP2	SID160736479	-0.144	79	-0.448	99.4	inactive
IL19	SID160739371	-1.92	43.8	-2.06	84.1	inactive
IL19	SID160739372	2.35	129	1.31	102	inactive
IL19	SID160739373	1.99	122	1.55	90.4	inactive
BSN	SID160721151	-1.29	56.2	-1.45	92	inactive
BSN	SID160721152	-0.426	73.4	-0.752	100	inactive
BSN	SID160721154	0.0411	82.7	-0.0679	94.1	inactive
NSUN5	SID160731523	-0.165	78.6	0.0286	87.2	inactive
NSUN5	SID160744106	0.0183	82.3	-0.493	105	inactive
NSUN5	SID160744108	0.325	88.4	-0.118	102	inactive
KDM5A	SID160715705	-0.301	75.9	-0.177	88.9	inactive
KDM5A	SID160715706	-0.305	75.8	0.27	78.9	inactive
KDM5A	SID160715707	0.156	85	-0.0229	95.5	inactive
GNAT2	SID160772087	-0.447	73	-0.707	98.2	inactive
GNAT2	SID160772092	-0.305	75.8	0.428	75.7	inactive
GNAT2	SID160772102	0.397	89.8	0.489	88.2	inactive
RGS7BP	SID160767185	-1.07	60.7	0.818	54.6	inactive
RGS7BP	SID160767186	-1.49	52.3	-0.383	64.6	inactive
RGS7BP	SID160767187	0.119	84.2	0.0103	93.9	inactive
